Laboratory results as given in publication PMC8765783, “Identification of the potential active site of the septal peptidoglycan polymerase FtsW” (PLoS Genetics, 2022).
Positions count from the first letter of the chain named. These are yes or no findings as the source states them, for the method shown. In cells and extracts the contact can be indirect. Some entries that bind do so weakly or less than the wild type. Where a sequence is shown, tags or fusion partners need not be part of it.

Columns and labels:
Test in all cases: pull-down; His-tagged protein co-expressed with the untagged partner in E. coli; membranes solubilised in DDM; His-tagged protein held on a HisTrap column (50 mM Tris-HCl pH 7.5, 300 mM NaCl, 10% glycerol, 1 mM DDM, 50 mM imidazole), eluted with an imidazole gradient; SDS-PAGE with Coomassie, Bocillin FL fluorescence or anti-HA blot
[1] = molecular target: T1, His-FtsW (wild type, E. coli) (E. coli) (UniProt P0ABG4)
T1 sequence: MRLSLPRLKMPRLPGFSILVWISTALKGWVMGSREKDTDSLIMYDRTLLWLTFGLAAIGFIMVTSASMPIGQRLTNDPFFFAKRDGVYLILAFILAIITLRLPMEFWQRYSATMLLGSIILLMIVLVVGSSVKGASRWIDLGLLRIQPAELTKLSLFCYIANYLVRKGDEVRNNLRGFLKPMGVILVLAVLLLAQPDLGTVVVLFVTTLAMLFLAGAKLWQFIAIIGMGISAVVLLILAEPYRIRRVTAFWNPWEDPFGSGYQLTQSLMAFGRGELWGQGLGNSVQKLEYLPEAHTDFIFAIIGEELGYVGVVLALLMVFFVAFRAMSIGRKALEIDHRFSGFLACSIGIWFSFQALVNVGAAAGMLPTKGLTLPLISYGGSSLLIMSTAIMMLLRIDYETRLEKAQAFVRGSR

[2] = molecular target: T2, His-FtsW D297A (E. coli) (UniProt P0ABG4)
T2 sequence: T1 sequence with D297A

[3] = molecular target: T3, His-FtsW R243L (E. coli) (UniProt P0ABG4)
T3 sequence: T1 sequence with R243L

[4] = molecular target: T4, His-FtsW Q147E (E. coli) (UniProt P0ABG4)
T4 sequence: T1 sequence with Q147E

[5] = molecular target: T5, His-FtsW G199A (E. coli) (UniProt P0ABG4)
T5 sequence: T1 sequence with G199A

Measured: binding

B1: FtsI(PBP3), untagged (E. coli) (enzyme, UniProt P0AD68 1-577)
chain: MKAAAKTQKPKRQEEHANFISWRFALLCGCILLALAFLLGRVAWLQVISPDMLVKEGDMRSLRVQQVSTSRGMITDRSGRPLAVSVPVKAIWADPKEVHDAGGISVGDRWKALANALNIPLDQLSARINANPKGRFIYLARQVNPDMADYIKKLKLPGIHLREESRRYYPSGEVTAHLIGFTNVDSQGIEGVEKSFDKWLTGQPGERIVRKDRYGRVIEDISSTDSQAAHNLALSIDERLQALVYRELNNAVAFNKAESGSAVLVDVNTGEVLAMANSPSYNPNNLSGTPKEAMRNRTITDVFEPGSTVKPMVVMTALQRGVVRENSVLNTIPYRINGHEIKDVARYSELTLTGVLQKSSNVGVSKLALAMPSSALVDTYSRFGLGKATNLGLVGERSGLYPQKQRWSDIERATFSFGYGLMVTPLQLARVYATIGSYGIYRPLSITKVDPPVPGERVFPESIVRTVVHMMESVALPGGGGVKAAIKGYRIAIKTGTAKKVGPDGRYINKYIAYTAGVAPASQPRFALVVVINDPQAGKYYGGAVSAPVFGAIMGGVLRTMNIEPDALTTGDKNEFV
binds: all assays above
